Test results: US20210261642A1, “SOLUBILITY OF GLP-1 PEPTIDE” (Novo Nordisk A/S, priority 2017, published 2021)
The source gives many values for each of these; only a part stands here.

Assay: Assay (I): Determination of Solubility (96-well plate, pH 3.0-11.0, organic solvent 0-70% w/w, UV absorption at 280 nm)
Type: physicochemical
Conditions: MeCN 25.5% w/w, Method 1
Procedure: Assay (I): Determination of Solubility
96-Well Plate Preparation
96-well plates containing target peptide in a solid form were prepared in one of two ways:
Method 1 (evaporation): Addition of 100 μl stock solution of said peptide at a concentration of 4-6 mg/ml to each well of a 96-well half area plate (150 μl well size). Subsequently the solvent was evaporated by applying a vacuum until the solvent was completely removed.
Method 2 (precipitation): Addition of a certain volume of a stock solution of said peptide containing to each well of a 96-well half area plate followed by the addition of a certain volume of concentrated phosphoric acid to obtain a pH of 4.6 followed by addition of a certain volume of ethanol resulting in a final ethanol concentration of 20% v/v. Subsequently the plate was stored at 4° C. for 1 h and then centrifuged at 4,000 rpm for 20 min. Finally the supernatant was removed. The concentration of the stock solution was chosen in a way that the final amount of peptide after supernatant removal was >0.4 mg per well.
In both cases the stock solution was prepared by adding de-ionized water to a certain amount of powder of said peptide followed by a stepwise addition of small amounts of a concentrated sodium hydroxide solution until said peptide was completely in solution.
To determine solubility of a target peptide at different pH and organic solvent concentrations, two different buffer systems were used in independent experiments to cover the whole range from pH 3.0 to pH 11.0. Buffer system 1 covers pH 3.0-7.5 and buffer system 2 covers pH 7.5-11.0. For each buffer system 96 different solvent compositions were premixed in the following way: • 1. A low pH buffer (adjusted to either pH 3.0 or pH 7.5) and a high pH buffer (adjusted to either pH 7.5 or pH 11.0) were mixed at 8 different ratios to obtain values between pH 3.0 and pH 7.5 or pH 7.5 and pH 11.0, respectively. The total volume after mixing was 300 μl. • 2. 12 different amounts of organic solvent were then added to these buffers to obtain organic solvent (e.g. ethanol) concentrations between 0 and 70% w/w. • 3. Water was then added to obtain a total weight of 1.0 g of solvent in each well.
After preparing the 96 different solvent systems, 100 μl of each system was transferred to the 96-well plate containing the solid form of the target peptide (prepared as described in the section “96-well plate preparation”). The plate was then stored at a given temperature (between 5° C. and 70° C.) for a given time on a rotating shaker set to 400 rpm. At regular time intervals the plate was centrifuged (4,000 rpm for 10 min) and a 10 μl sample was taken from each well. The samples were then analysed by UV absorption at 280 nm for peptide quantification. Peptide concentration results are given as UV absorption at 280 nm of the sample subtracted UV absorption at 280 nm of a well comprising 10 μl water.
The buffers used were as follows: • Buffer system 1 (for the pH range from pH 3.0-7.5)
• Buffer system 2 (for the pH ranae from pH 7.5-11.0)
Solubility of liraglutide was determined using Assay (I) described herein. Liraglutide was prepared using Method 1 (evaporation) or Method 2 (precipitation) as described in subsection “96-well plate preparation”.

CCCCCCCCCCCCCCCC(=O)N[C@@H](CCC(=O)NCCCC[C@H](NC(=O)[C@H](C)NC(=O)[C@H](C)NC(=O)[C@H](CCC(N)=O)NC(=O)CNC(=O)[C@H](CCC(=O)O)NC(=O)[C@H](CC(C)C)NC(=O)[C@H](Cc1ccc(O)cc1)NC(=O)[C@H](CO)NC(=O)[C@H](CO)NC(=O)[C@@H](NC(=O)[C@H](CC(=O)O)NC(=O)[C@H](CO)NC(=O)[C@@H](NC(=O)[C@H](Cc1ccccc1)NC(=O)[C@@H](NC(=O)CNC(=O)[C@H](CCC(=O)O)NC(=O)[C@H](C)NC(=O)[C@@H](N)Cc1cnc[nH]1)[C@@H](C)O)[C@@H](C)O)C(C)C)C(=O)N[C@@H](CCC(=O)O)C(=O)N[C@@H](Cc1ccccc1)C(=O)N[C@H](C(=O)N[C@@H](C)C(=O)N[C@@H](Cc1c[nH]c2ccccc12)C(=O)N[C@@H](CC(C)C)C(=O)N[C@H](C(=O)N[C@@H](CCCNC(=N)N)C(=O)NCC(=O)N[C@@H](CCCNC(=N)N)C(=O)NCC(=O)O)C(C)C)[C@@H](C)CC)C(=O)O [liraglutide, Arg34,Lys26-(N-epsilon-(gamma-L-glutamyl(N-alfa-hexadecanoyl)))-GLP-1(7-37)]
Peptide concentration after 24 h (pH 3.0, 5° C.): 0.7 mg/mL | Peptide concentration after 5 min (pH 3.0, 70° C.): 0.6 mg/mL | Peptide concentration after 180 min (pH 3.0, 70° C.): 0.9 mg/mL | Peptide concentration after 5 min (pH 3.0, RT): 0.5 mg/mL | Peptide concentration after 180 min (pH 3.0, RT): 0.4 mg/mL | Peptide concentration after 24 h (pH 3.0, RT): 0.4 mg/mL | Peptide concentration after 5 min (pH 3.6, 5° C.): 0.2 mg/mL | Peptide concentration after 180 min (pH 3.6, 5° C.): 0.2 mg/mL | Peptide concentration after 24 h (pH 3.6, 5° C.): 0.2 mg/mL | Peptide concentration after 5 min (pH 3.6, 70° C.): 0.1 mg/mL | Peptide concentration after 180 min (pH 3.6, 70° C.): 0.1 mg/mL | Peptide concentration after 5 min (pH 3.6, RT): 0.2 mg/mL | Peptide concentration after 180 min (pH 3.6, RT): 0.1 mg/mL | Peptide concentration after 24 h (pH 3.6, RT): 0.1 mg/mL | Peptide concentration after 5 min (pH 4.3, 5° C.): 0.3 mg/mL | Peptide concentration after 180 min (pH 4.3, 5° C.): 0.2 mg/mL | Peptide concentration after 24 h (pH 4.3, 5° C.): 0.1 mg/mL | Peptide concentration after 5 min (pH 4.3, 70° C.): 0.1 mg/mL | Peptide concentration after 180 min (pH 4.3, 70° C.): 0.1 mg/mL | Peptide concentration after 5 min (pH 4.3, RT): 0.1 mg/mL | Peptide concentration after 180 min (pH 4.3, RT): 0.1 mg/mL | Peptide concentration after 24 h (pH 4.3, RT): 0.1 mg/mL | Peptide concentration after 5 min (pH 4.9, 5° C.): 0.1 mg/mL | Peptide concentration after 180 min (pH 4.9, 5° C.): 0.2 mg/mL | Peptide concentration after 24 h (pH 4.9, 5° C.): 0.1 mg/mL | Peptide concentration after 5 min (pH 4.9, 70° C.): 0.1 mg/mL | Peptide concentration after 180 min (pH 4.9, 70° C.): 0.1 mg/mL | Peptide concentration after 5 min (pH 4.9, RT): 0.1 mg/mL | Peptide concentration after 180 min (pH 4.9, RT): 0.1 mg/mL | Peptide concentration after 24 h (pH 4.9, RT): 0.0 mg/mL | Peptide concentration after 5 min (pH 5.6, 5° C.): 0.1 mg/mL | Peptide concentration after 180 min (pH 5.6, 5° C.): 0.1 mg/mL | Peptide concentration after 24 h (pH 5.6, 5° C.): 0.1 mg/mL | Peptide concentration after 5 min (pH 5.6, 70° C.): 0.2 mg/mL | Peptide concentration after 180 min (pH 5.6, 70° C.): 0.1 mg/mL | Peptide concentration after 5 min (pH 5.6, RT): 0.6 mg/mL | Peptide concentration after 180 min (pH 5.6, RT): 0.2 mg/mL | Peptide concentration after 24 h (pH 5.6, RT): 0.1 mg/mL | Peptide concentration after 5 min (pH 6.2, 5° C.): 1.6 mg/mL | Peptide concentration after 180 min (pH 6.2, 5° C.): 0.9 mg/mL | Peptide concentration after 24 h (pH 6.2, 5° C.): 0.2 mg/mL | Peptide concentration after 5 min (pH 6.2, 70° C.): 0.9 mg/mL | Peptide concentration after 180 min (pH 6.2, 70° C.): 0.3 mg/mL | Peptide concentration after 5 min (pH 6.2, RT): 1.0 mg/mL | Peptide concentration after 180 min (pH 6.2, RT): 0.6 mg/mL | Peptide concentration after 24 h (pH 6.2, RT): 0.2 mg/mL | Peptide concentration after 5 min (pH 6.9, 5° C.): 1.3 mg/mL | Peptide concentration after 180 min (pH 6.9, 5° C.): 3.5 mg/mL | Peptide concentration after 24 h (pH 6.9, 5° C.): >4.0 mg/mL
